Not every detail of the peptide structures is certain; ends, links or a residue may be inferred. No end group written: not given here.
Key:
[1] = test system: A549 epithelial cells; test: Human Operon arrays (PRHU04-S1) of A549 cells treated with peptide alone (Tables 31-37, 53); settings: peptide 50 μg/ml, 4 h
[2] = test system: RAW 264.7 mouse macrophage cells; assay type: cell-based; settings: Peptide 20 μg/ml; 100 ng/ml E. coli 0111:B4 LPS, 6 h
[3] = test system: A549 human epithelial cells; test: Induction of chemokines (IL-8, MCP-1) in A549 cells (ELISA); assay type: cell-based; settings: peptide 10 ug/ml, 24 hr
Procedure: The murine macrophage cell line RAW 264.7, THP-1 cells (human monocytes), a human epithelial cell line (A549), human bronchial epithelial cells (16HBEo14), and whole human blood were used. HBE cells were grown in MEM with Earle's. THP-1 cells were grown and maintained in RPMI 1640 medium. The RAW and A549 cell lines were maintained in DMEM supplemented with 10% fetal calf serum. […] DMEM was aspirated from cells grown overnight and replaced with fresh medium. After incubation of the cells with peptide, the release of chemokines into the culture supernatant was determined by ELISA (R&D Systems, Minneapolis, Minn.).

## RPAWKYWWPWPWPRRK [SEQ ID NO: 22]
[1]
  ID#:ctrl intensity ratio, AB010962 matrix metalloproteinase: 4.7
  ID#:ctrl intensity ratio, AB033063 unknown: 2.6
  ID#:ctrl intensity ratio, AB033080 cell cycle progression 8 protein: 3.5
  ID#:ctrl intensity ratio, AB037786 unknown: 2.3
  ID#:ctrl intensity ratio, AC007059 unknown: 2.4
  ID#:ctrl intensity ratio, AF023466 putative glycine-N-acyltransferase: 7.4
  ID#:ctrl intensity ratio, AF030555 fatty-acid-Coenzyme A ligase: 9.9
  ID#:ctrl intensity ratio, AF050078 growth arrest specific 11: 2.2
  ID#:ctrl intensity ratio, AF052116 unknown: 3.0
  ID#:ctrl intensity ratio, AF064493 LIM binding domain 2: 2.9
  ID#:ctrl intensity ratio, AF144412 lens epithelial cell protein: 3.4
  ID#:ctrl intensity ratio, AF181286 unknown: 35.6
  ID#:ctrl intensity ratio, AJ272208 IL-1R accessory protein-like 2: 3.2
  ID#:ctrl intensity ratio, AJ272265 secreted phosphoprotein: 4.9
  ID#:ctrl intensity ratio, AJ275355 unknown: 9.2
  ID#:ctrl intensity ratio, AK001024 guanine nucleotide-binding protein: 2.6
  ID#:ctrl intensity ratio, AK001244 unknown: 2.3
  ID#:ctrl intensity ratio, AK001856 unknown: 3.1
  ID#:ctrl intensity ratio, AL022723 MHC, class I, F: 2.3
  ID#:ctrl intensity ratio, AL049423 unknown: 2.8
  ID#:ctrl intensity ratio, AL050125 unknown: 2.8
  ID#:ctrl intensity ratio, AL050201 unknown: 3.0
  ID#:ctrl intensity ratio, AL080107 unknown: 6.2
  ID#:ctrl intensity ratio, AL096729 unknown: 2.4
  ID#:ctrl intensity ratio, AL109792 unknown: 8.8
  ID#:ctrl intensity ratio, AL117457 cofilin 2: 2.4
  ID#:ctrl intensity ratio, AL117567 DKFZP566O084 protein: 2.3
  ID#:ctrl intensity ratio, AL133602 unknown: 2.6
  ID#:ctrl intensity ratio, AL137362 unknown: 4.1
  ID#:ctrl intensity ratio, AL137489 unknown: 3.3
  ID#:ctrl intensity ratio, D38449 putative G protein coupled receptor: 5.8
  ID#:ctrl intensity ratio, J00210 interferon alpha 13: 3.1
  ID#:ctrl intensity ratio, J03068 N-acylaminoacyl-peptide hydrolase: 4.1
  ID#:ctrl intensity ratio, L13720 growth arrest-specific 6: 4.8
  ID#:ctrl intensity ratio, L22569 cathepsin B: 3.0
  ID#:ctrl intensity ratio, L40933 phosphoglucomutase 5: 3.5
  ID#:ctrl intensity ratio, M27190 regenerating islet-derived 1 alpha: 3.6
  ID#:ctrl intensity ratio, M33906 MHC class II, DQ alpha 1: 6.1
  ID#:ctrl intensity ratio, M37238 phospholipase C, gamma 2: 2.1
  ID#:ctrl intensity ratio, M81933 cell division cycle 25A: 15.6
  ID#:ctrl intensity ratio, NM_001756 corticosteroid binding globulin: 2.7
  ID#:ctrl intensity ratio, NM_006963 zinc finger protein: 5.9
  ID#:ctrl intensity ratio, NM_014099 PRO1768 protein: 5.4
  ID#:ctrl intensity ratio, S70348 Integrin beta 3: 2.6
  ID#:ctrl intensity ratio, U27655 regulator of G-protein signaling: 8.3
  ID#:ctrl intensity ratio, U60179 growth hormone receptor: 3.1
  ID#:ctrl intensity ratio, U80770 unknown: 2.7
  ID#:ctrl intensity ratio, U86529 glutathione S-transferase zeta 1: 2.3
  ID#:ctrl intensity ratio, U92981 unknown: 5.6
  ID#:ctrl intensity ratio, X05323 unknown: 2.4
  ID#:ctrl intensity ratio, X54131 protein tyrosine phosphatase, receptor type,: 15.0
  ID#:ctrl intensity ratio, X66403 cholinergic receptor: 9.3
  ID#:ctrl intensity ratio, X67734 contactin 2: 5.8
  ID#:ctrl intensity ratio, X68879 empty spiracles homolog 1: 2.7
  ID#:ctrl intensity ratio, X73113 myosin-binding protein C: 2.4
  ID#:ctrl intensity ratio, X84003 TATA box binding protein: 2.8
[1]; Formula C peptides
  ID#:ctrl intensity ratio, AL031121 unknown: 3.9
  ID#:ctrl intensity ratio, NM_012450 sulfate transport 1: 10.9
  ID#:ctrl intensity ratio, U21931 fructose-bisphosphatase 1: 2.1
[2]
  Inhibition of TNF-α: 73.3 ± 0.36%
[3]
  IL-8: 0.314 ng/mL
